Numbering of substitutions follows the chain as printed. For some assays here: A negative result means that nothing was seen under these conditions. Where a protein sequence is shown, tags need not be part of it.
Key:
Assay in all cases: EMSA
[1] = test system: T1, MBP-APR1 L265S (Acinetobacter venetianus RAG-1); details: 2.55 uM protein, DNA 110 nM; EMSA: 5 mM Tris-HCl pH 7.5, 0.1 mM EDTA, 5 mM MgCl2, 10 mM KCl, 0.2 mM DTT, 30 C, 30 min, native PAGE in 0.5x TBE; recombinant protein; residues 1-335; protein details: MBP; probe letters rebuilt from the primers and the genome
T1 sequence (looked up): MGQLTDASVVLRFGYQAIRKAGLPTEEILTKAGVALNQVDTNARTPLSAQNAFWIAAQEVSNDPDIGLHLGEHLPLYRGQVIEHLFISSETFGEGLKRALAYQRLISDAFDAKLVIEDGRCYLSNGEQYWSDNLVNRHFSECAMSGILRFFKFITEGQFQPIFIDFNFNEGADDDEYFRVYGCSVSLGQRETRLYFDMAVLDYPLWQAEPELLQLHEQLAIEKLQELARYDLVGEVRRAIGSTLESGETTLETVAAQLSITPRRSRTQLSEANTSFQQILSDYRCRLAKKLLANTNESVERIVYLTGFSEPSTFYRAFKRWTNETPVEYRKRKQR

[2] = test system: T2, 6xHis-APR1 F314S (Acinetobacter venetianus RAG-1); details: 2.55 uM protein, DNA 110 nM; EMSA: 5 mM Tris-HCl pH 7.5, 0.1 mM EDTA, 5 mM MgCl2, 10 mM KCl, 0.2 mM DTT, 30 C, 30 min, native PAGE in 0.5x TBE; recombinant protein; residues 1-335; protein details: 6xHis; probe letters rebuilt from the primers and the genome
T2 sequence (looked up): T1 sequence (looked up) with S265L, F314S

[3] = test system: T3, 6xHis-APR1 F318S (Acinetobacter venetianus RAG-1); details: 2.55 uM protein, DNA 110 nM; EMSA: 5 mM Tris-HCl pH 7.5, 0.1 mM EDTA, 5 mM MgCl2, 10 mM KCl, 0.2 mM DTT, 30 C, 30 min, native PAGE in 0.5x TBE; recombinant protein; residues 1-335; protein details: 6xHis; probe letters rebuilt from the primers and the genome
T3 sequence (looked up): T1 sequence (looked up) with S265L, F318S

[4] = test system: T4, 6xHis-APR1 V303E (Acinetobacter venetianus RAG-1); details: 2.55 uM protein, DNA 110 nM; EMSA: 5 mM Tris-HCl pH 7.5, 0.1 mM EDTA, 5 mM MgCl2, 10 mM KCl, 0.2 mM DTT, 30 C, 30 min, native PAGE in 0.5x TBE; recombinant protein; residues 1-335; protein details: 6xHis; probe letters rebuilt from the primers and the genome
T4 sequence (looked up): T1 sequence (looked up) with S265L, V303E

[5] = test system: T5, 6xHis-APR1 T306L (Acinetobacter venetianus RAG-1); details: 2.55 uM protein, DNA 110 nM; EMSA: 5 mM Tris-HCl pH 7.5, 0.1 mM EDTA, 5 mM MgCl2, 10 mM KCl, 0.2 mM DTT, 30 C, 30 min, native PAGE in 0.5x TBE; recombinant protein; residues 1-335; protein details: 6xHis; probe letters rebuilt from the primers and the genome
T5 sequence (looked up): T1 sequence (looked up) with S265L, T306L

## AATCAATTGTTTATACTCTATTAACAGCTTGTTTTATAACATTATGATTGCTAAAGGTTAACTCGATGCTTTGTATGTGAGTGTATTGAGCTTTCTATTTACATCAAAATTTTATAACAAATTATTTATACATTCATTGTGATTAACATATTTTTCATACTTTACACATATTACTTAAATTAAGTTTTTTGGTTATACGGAAAAAATGAATTTTTCTTAAACTCTGATCCTTTAATAAATTGCAAATCCAAGCAAAAATCTCAGGATTTTTTACACTCTCTTTTTCTAAAAATGTCCCGAAGTGACATGAAAAAACCGATGAATGACTAAACTTGACATTGTGTATTGTCAAATTTGTGCTTTAATAAAGTCATGGTTTATACAGGGTAT (double strand) [almA promoter]
[1]
  binding result: no binding
[2]
  binding result: no binding
[3]
  binding result: no binding
[4]
  binding result: no binding
[5]
  binding result: binds

Reference: PMC11784139
